PubChem BioAssay AID1259254 | NCATS | 2017
Assay: 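Genome-wide screen for genes that prevent DNA re-replication in cancer cells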 (primary screen). System: human HCT116 colorectal cancer cells. Reagent: single siRNA against human genes. Duration: 3 days. Read-out: 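Imaged Hoechst DNA stain sorts each cell into a cycle phase by DNA amount; per plate, G2 fraction set to 0% for non-targeting and 100% for GMNN siRNA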. Reading the numbers: G2 robust z-score and G2 cells, % of GMNN control: higher = more G2 cells, more excess DNA replication; raw share of cells in G2: higher = larger share of cells with G2 DNA content. Hit rule: 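An siRNA counts as active if its G2 robust z-score lies at least 5 MADs above the screen median; here such calls match roughly 38% of GMNN control or more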.
Here is an unselected part of about 59,000 reagents tested. In the full data, about 1,550 (2.6%) got an active call. 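G2 share is only a proxy for re-replication; each gene was hit by three separate siRNAs, and active genes were retested.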 Raw values are not corrected between plates. The numbers tell different reagents against one gene apart. Reagent sequences are not shown. Not given: the amount of reagent.

no.	target gene	reagent	G2 robust z-score	G2 cells, % of GMNN control	raw share of cells in G2 (%)	activity call
1	LNPK	1	3.52	27.7	16	inactive
2	LNPK	2	-0.497	-0.529	4.07	inactive
3	LNPK	3	-0.543	-0.853	2.14	inactive
4	ERBIN	1	0.28	4.94	6.29	inactive
5	ERBIN	2	-0.833	-2.89	3.08	inactive
6	ERBIN	3	1.09	10.7	6.4	inactive
7	PLEKHG4B	1	0.464	6.23	5.84	inactive
8	PLEKHG4B	2	-0.539	-0.826	2.68	inactive
9	PLEKHG4B	3	-0.139	1.99	3.39	inactive
10	KLHL41	1	-0.548	-0.887	4.93	inactive
11	KLHL41	2	-0.601	-1.26	3.42	inactive
12	KLHL41	3	0.0235	3.13	4.55	inactive
13	CDX4	1	0.441	6.07	7.13	inactive
14	CDX4	2	0.21	4.44	6.62	inactive
15	CDX4	3	-0.349	0.515	4.27	inactive
16	ING2	1	1.52	13.7	8.89	inactive
17	ING2	2	-0.399	0.157	4.92	inactive
18	ING2	3	3.54	27.9	13.2	inactive
19	LATS2	1	2.51	20.6	12	inactive
20	LATS2	2	-0.238	1.3	5.66	inactive
21	LATS2	3	0.31	5.15	5.33	inactive
22	DIPK2B	1	-0.859	-3.07	2.32	inactive
23	DIPK2B	2	-0.253	1.19	3.57	inactive
24	DIPK2B	3	2.91	23.4	14.2	inactive
25	DIPK2B	4	-0.638	-1.52	3.64	inactive
26	DIPK2B	5	0.173	4.19	3.52	inactive
27	DIPK2B	6	-0.116	2.15	4.75	inactive
28	ABHD4	1	-0.597	-1.23	5.08	inactive
29	ABHD4	2	0.711	7.97	7.1	inactive
30	ABHD4	3	1.27	11.9	8.68	inactive
31	MFAP5	1	0.678	7.74	8.56	inactive
32	MFAP5	2	0.0687	3.45	5.26	inactive
33	MFAP5	3	-0.332	0.629	3.57	inactive
34	UBE3C	1	2.34	19.4	12.5	inactive
35	UBE3C	2	-0.00272	2.95	4.21	inactive
36	UBE3C	3	-0.229	1.36	5.3	inactive
37	SPEF1	1	0.701	7.9	7.38	inactive
38	SPEF1	2	-0.612	-1.34	3.36	inactive
39	SPEF1	3	-0.642	-1.55	2.76	inactive
40	TMEM82	1	-0.597	-1.23	3.35	inactive
41	TMEM82	2	-0.253	1.19	3.92	inactive
42	TMEM82	3	1.26	11.8	9.7	inactive
43	CD3E	1	0.201	4.38	7.36	inactive
44	CD3E	2	-0.841	-2.95	3.01	inactive
45	CD3E	3	0.446	6.11	5.91	inactive
46	TMC4	1	-1.48	-7.41	1.34	inactive
47	TMC4	2	0.287	4.98	4.45	inactive
48	TMC4	3	-0.224	1.39	3.55	inactive

In a second layout: results already given
target gene | reagent | G2 robust z-score | G2 cells, % of GMNN control | raw share of cells in G2 (%) | activity call
CD3E | 2 | -0.841 | -2.95 | 3.01 | inactive
CD3E | 3 | 0.446 | 6.11 | 5.91 | inactive
TMC4 | 1 | -1.48 | -7.41 | 1.34 | inactive
